Where a chain is given by its changes, count along the chain named. Results are given in words; binding and its absence hold for the method and conditions named. Binding seen in cells or lysates may run through a third protein. Some results given as binding are weak or reduced against the parent protein; the word gives no strength. Tags and fused reporters may be left off the sequences shown.
Columns and labels:
Experiment in all cases: co-IP; Flag-tagged WTAP 1-273 and His-tagged VIRMA 381-1486 co-expressed in HEK 293F cells; whole-cell extracts purified via anti-Flag beads, western blot against the tags
[1] = molecular target: T1, Flag-tagged WTAP^1–273 Q192A (human) (UniProt Q15007)
T1 sequence: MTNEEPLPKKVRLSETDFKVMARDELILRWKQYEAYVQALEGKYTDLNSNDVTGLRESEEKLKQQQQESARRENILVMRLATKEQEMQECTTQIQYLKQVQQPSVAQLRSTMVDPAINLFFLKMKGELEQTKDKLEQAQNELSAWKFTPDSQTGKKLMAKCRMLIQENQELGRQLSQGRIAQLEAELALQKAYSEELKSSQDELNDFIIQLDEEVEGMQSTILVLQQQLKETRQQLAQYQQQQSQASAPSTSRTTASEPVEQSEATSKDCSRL

[2] = molecular target: T2, Flag-tagged WTAP^1–273 E196A (human) (UniProt Q15007)
T2 sequence: T1 sequence with A192K, E196A

[3] = molecular target: T3, Flag-tagged WTAP^1–273 E203A (human) (UniProt Q15007)
T3 sequence: T1 sequence with A192K, E203A

[4] = molecular target: T4, Flag-tagged WTAP^1–273 E216A (human) (UniProt Q15007)
T4 sequence: T1 sequence with A192K, E216A

[5] = molecular target: T5, Flag-tagged WTAP^1–273 (human) (UniProt Q15007)
T5 sequence: T1 sequence with A192K

[6] = molecular target: T6, Flag-tagged WTAP^1–273 Q177A (human) (UniProt Q15007)
T6 sequence: T1 sequence with Q177A, A192K

[7] = molecular target: T7, Flag-tagged WTAP^1–273 Q182A (human) (UniProt Q15007)
T7 sequence: T1 sequence with Q182A, A192K

[8] = molecular target: T8, Flag-tagged WTAP^1–273 N205A (human) (UniProt Q15007)
T8 sequence: T1 sequence with A192K, N205A

binding [1]: binds | binding [2]: binds | binding [3]: binds | binding [4]: binds | binding [5]: binds | binding [6]: binds | binding [7]: binds | binding [8]: binds
B1: His-tagged VIRMA^381–1486 (domain or fragment, UniProt Q69YN4 381-1486)
chain: ASVKLTELLDLYREDRGAKWVTALEEIPSLIIKGLSYLQLKNTKQDSLGQLVDWTMQALNLQVALRQPIALNVRQLKAGTKLVSSLAECGAQGVTGLLQAGVISGLFELLFADHVSSSLKLNAFKALDSVISMTEGMEAFLRGRQNEKSGYQKLLELILLDQTVRVVTAGSAILQKCHFYEVLSEIKRLGDHLAEKTSSLPNHSEPDHDTDAGLERTNPEYENEVEASMDMDLLESSNISEGEIERLINLLEEVFHLMETAPHTMIQQPVKSFPTMARITGPPERDDPYPVLFRYLHSHHFLELVTLLLSIPVTSAHPGVLQATKDVLKFLAQSQKGLLFFMSEYEATNLLIRALCHFYDQDEEEGLQSDGVIDDAFALWLQDSTQTLQCITELFSHFQRCTASEETDHSDLLGTLHNLYLITFNPVGRSAVGHVFSLEKNLQSLITLMEYYSKEALGDSKSKKSVAYNYACILILVVVQSSSDVQMLEQHAASLLKLCKADENNAKLQELGKWLEPLKNLRFEINCIPNLIEYVKQNIDNLMTPEGVGLTTALRVLCNVACPPPPVEGQQKDLKWNLAVIQLFSAEGMDTFIRVLQKLNSILTQPWRLHVNMGTTLHRVTTISMARCTLTLLKTMLTELLRGGSFEFKDMRVPSALVTLHMLLCSIPLSGRLDSDEQKIQNDIIDILLTFTQGVNEKLTISEETLANNTWSLMLKEVLSSILKVPEGFFSGLILLSELLPLPLPMQTTQVIEPHDISVALNTRKLWSMHLHVQAKLLQEIVRSFSGTTCQPIQHMLRRICVQLCDLASPTALLIMRTVLDLIVEDLQSTSEDKEKQYTSQTTRLLALLDALASHKACKLAILHLINGTIKGDERYAEIFQDLLALVRSPGDSVIRQQCVEYVTSILQSLCDQDIALILPSSSEGSISELEQLSNSLPNKELMTSICDCLLATLANSESSYNCLLTCVRTMMFLAEHDYGLFHLKSSLRKNSSALHSLLKRVVSTFSKDTGELASSFLEFMRQILNSDTIGCCGDDNGLMEVEGAHTSRTMSINAAELKQLLQSKEESPENLFLELEKLVLEHSKDDDNLDSLLDSVVGLKQMLES
